{
  "source": "PubChem BioAssay AID624297",
  "about": "(National Center for Advancing Translational Sciences (NCATS), 2012)",
  "note": "Screen size: about 340,000 compounds; about 6,200 (1.8%) were called active. The inconclusive results got no clear call from the source; some entries with a clear call stand among them for comparison. The call rests on the fitted dose curve; in most records, active means well fitted activation curve with a large enough effect; inconclusive means small, poorly fitted or top-dose-only effect; inactive means no such curve, though single readings can be large or run the other way. Where the call is inconclusive, the potency comes from a doubtful curve fit. Potency means the concentration at half of the fitted maximal effect.",
  "data": [
    {"assay": "A quantitative high throughput screen for small molecules that induce DNA re-replication in SW480 colon adenocarcinoma cells; further: nearly all actives have a fitted effect of over 55% in size; on re-replication activation: % of control where 0% means no effect.", "details": "Hoechst DNA content imaging, 48 h; re-replication activation: at 46.1 µM (top of the series) unless noted", "outline": "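Compounds, transferred as 23 nL by pin tool, were incubated with cells for 48 hr; DNA content per nucleus was then quantified by Hoechst staining and fluorescence plate imaging.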", "values": [
      {"molecule": "Cc1ccc(-c2c[n+](CC(=O)Nc3ccc(C)cc3C)c3n2CCC3)cc1", "Potency": "inconclusive: 0.164 µM [activator, full curve, poor fit]"},
      {"molecule": "S=C(Nc1ccccc1Oc1ccccc1)NC1CCCC1", "Potency": "inactive"},
      {"molecule": "CCC1(c2ccc(Cl)cc2)NC(=O)N(CC(=O)NC2CCCC(C)C2C)C1=O", "note": "(stereo not drawn)", "Potency": "active: 4.11 µM"},
      {"molecule": "CC(=O)Nc1cccc(-n2nnc(SCC(=O)c3ccccc3)n2)c1", "Potency": "inconclusive: 29.1 µM [activator, single point]"},
      {"molecule": "COc1cccc(CN2CCC(N(CCc3ccccc3)Cc3ccccc3)CC2)c1OC", "Potency": "inconclusive: 29.1 µM [activator, single point]"},
      {"molecule": "CCN(CC)S(=O)(=O)c1cc(NC(=O)CSc2nnc(N)s2)ccc1C", "re-replication activation": "inconclusive: 56% [activator]"},
      {"molecule": "Cc1ccc(S(=O)(=O)N2c3ccccc3CC2C)cc1", "note": "(stereo not drawn)", "Potency": "inconclusive: 8.2 µM [activator, partial curve, poor fit]"},
      {"molecule": "CC(=NNC(=S)Nc1ccc(C)cc1)c1ccccn1", "Potency": "inconclusive: 6.51 µM [activator, partial curve, poor fit]"},
      {"molecule": "CCc1nn(C(CC)C(=O)NCCCN2CC(C)CC(C)C2)c(=O)c2cc3oc(C)cc3n12", "note": "(stereo not drawn)", "Potency": "inconclusive: 20.6 µM [activator, single point]"},
      {"molecule": "Cc1cc(/C=C2\\SC(=S)N(C)C2=O)c(C)n1-c1ccc(O)cc1", "Potency": "inconclusive: 16.4 µM [activator, single point]"},
      {"molecule": "CC(=O)c1cccc(NS(=O)(=O)c2cc(-c3cnc(C4CC4)o3)ccc2C)c1", "Potency": "inactive"},
      {"molecule": "CC(=O)c1ccc(-n2c(-c3cc(-c4ccsc4)n[nH]3)n[nH]c2=S)cc1", "Potency": "inconclusive: 35.5 µM [activator, single point]"},
      {"molecule": "Cc1ccc(C(=O)Nc2cccnc2)cc1Cl", "Potency": "inactive"},
      {"molecule": "CCCCOc1ccc(C2=CSC3=NCCN23)cc1[N+](=O)[O-]", "Potency": "inactive"},
      {"molecule": "CC(C)CCCN1C(N(C)C)=NC[C@@H]1C", "Potency": "inconclusive: 0.58 µM [activator, partial curve, poor fit]"},
      {"molecule": "Cc1cccc(CCNC(=O)C2CCN(S(=O)(=O)c3c(C)noc3C)CC2)c1", "Potency": "inconclusive: 29.1 µM [activator, single point]"},
      {"molecule": "CC1CC(N(C(=O)c2ccco2)c2ccccc2)c2ccccc2N1", "note": "(stereo not drawn)", "Potency": "inconclusive: 29.1 µM [activator, single point]"},
      {"molecule": "CC(=O)N1c2ccc(S(=O)(=O)N(C)CC(=O)NCc3ccc(C)cc3)cc2CC1C", "note": "(stereo not drawn)", "Potency": "inconclusive: 29.1 µM [activator, single point]"},
      {"molecule": "Oc1ccc(C[C@H]2CNCCN2CCc2cccc(F)c2)cc1", "Potency": "inactive"},
      {"molecule": "COc1cc(NC(=O)c2cccc(NC3=NC4CS(=O)(=O)CC4S3)c2)cc(OC)c1OC", "note": "(stereo not drawn)", "Potency": "inactive"},
      {"molecule": "CCc1cccc(C)c1NC(=S)NCCc1c(C)[nH]c2ccc(C)cc12", "Potency": "inconclusive: 16.4 µM [activator, single point]"},
      {"molecule": "Clc1ccccc1Nc1nc(-c2ccncc2)nc2ccccc12", "Potency": "inconclusive: 18.4 µM [activator, single point]"},
      {"molecule": "Cc1cccc(Cn2cnc3ccccc32)c1", "re-replication activation": "inactive: 4.72% [at 9.22 µM]"},
      {"molecule": "CC[n+]1c(/C=C/Nc2ccccc2)oc2ccccc21", "Potency": "inconclusive: 4.11 µM [activator, full curve]"},
      {"molecule": "COc1ccc(NC(=O)CCCCCn2nnc3ccccc3c2=O)cc1", "Potency": "inconclusive: 1.64 µM [activator, partial curve, poor fit]"},
      {"molecule": "CCOC(=O)c1ccc2c(c1)n(CC)c(/C=C/Nc1ccccc1)[n+]2CC", "Potency": "inactive"},
      {"molecule": "CCOC(=O)Nc1ccccc1C(=O)Nc1cc(C)cc(C)c1", "re-replication activation": "inconclusive: 29.6% [activator]"},
      {"molecule": "COc1ccc(NC(=O)COC(=O)c2ccc(OCc3ccccc3Cl)c(OC)c2)c(OC)c1", "Potency": "inactive"},
      {"molecule": "COc1ccc(Cl)cc1Nc1nc(C)nc2c1nnn2Cc1ccccc1", "Potency": "inactive"},
      {"molecule": "Cc1ccc(NC(=O)CO/N=C/c2ccc(N(C)C)cc2)cc1", "Potency": "inconclusive: 0.82 µM [activator, partial curve, poor fit]"},
      {"molecule": "COc1ccc(C(=O)CC(c2ccccc2)C2CCCCC2=O)cc1", "note": "(stereo not drawn)", "Potency": "inconclusive: 29.1 µM [activator, single point]"},
      {"molecule": "O=C(O)CC(NC(=O)C12CC3CC(CC(C3)C1)C2)c1ccc2c(c1)OCO2", "note": "(stereo not drawn)", "Potency": "inconclusive: 0.146 µM [activator, full curve, poor fit]"},
      {"molecule": "O=C(CSc1nc2ccccc2[nH]1)NCc1ccc2c(c1)OCO2", "Potency": "inconclusive: 16.4 µM [activator, single point]"},
      {"molecule": "O=C(c1ccc([N+](=O)[O-])s1)N1CCc2ccccc2C1", "Potency": "inconclusive: 29.1 µM [activator, single point]"},
      {"molecule": "COc1ccc(CN(C)CC(O)COC(c2ccccc2)c2ccccc2)c(OC)c1OC", "note": "(stereo not drawn)", "Potency": "inconclusive: 29.1 µM [activator, single point]"},
      {"molecule": "COc1ccc(S(=O)(=O)NCC2CCCO2)cc1NC(=O)c1ccccc1F", "note": "(stereo not drawn)", "Potency": "inconclusive: 0.1 µM [activator, full curve, poor fit]"},
      {"molecule": "CCNC(=O)CSc1nnc(-c2ccccc2)n1-c1ccc(OCC)cc1", "Potency": "inactive"},
      {"molecule": "CCc1ccc2c(COn3nnc4ccc(S(=O)(=O)N(C)C)cc43)cc(=O)oc2c1", "Potency": "inconclusive: 29.1 µM [activator, partial curve, poor fit]"},
      {"molecule": "O=C(c1ccco1)N(CCCN1CCOCC1)c1nc(-c2ccc(Cl)cc2)cs1", "Potency": "inconclusive: 13 µM [activator, partial curve]"},
      {"molecule": "Cc1cnc(C(=O)Oc2ccc(-c3ccccc3)cc2)cn1", "Potency": "inactive"},
      {"molecule": "CCc1ccc(OC)c(S(=O)(=O)Nc2ccccc2C)c1", "Potency": "inactive"},
      {"molecule": "CCN(CCCNC(=O)C1CCN(S(=O)(=O)CC)CC1)c1ccccc1", "Potency": "inactive"},
      {"molecule": "O=C(Cn1c(-c2ccccc2)noc1=O)Nc1ccc(N2CCCCCC2)cc1", "Potency": "inconclusive: 31.6 µM [activator, single point]"},
      {"molecule": "CC1(C)C(=O)OC(c2c3ccccc3cc3ccccc23)C(C)(C)C1=O", "note": "(stereo not drawn)", "Potency": "inconclusive: 29.1 µM [activator, single point]"},
      {"molecule": "CCC(=O)Nc1cccc(C(=O)/C=C/c2cccs2)c1", "Potency": "inconclusive: 29.1 µM [activator, single point]"},
      {"molecule": "O=C(Nc1nccs1)c1ccc(CSc2nnnn2-c2ccccc2)cc1", "Potency": "inconclusive: 35.5 µM [activator, partial curve, poor fit]"},
      {"molecule": "Cc1ccc2c(c1)c(CC(=O)Nc1ccc(F)cc1)c(C(=O)O)n2C", "Potency": "inconclusive: 5.8 µM [activator, single point]"},
      {"molecule": "COc1ccc2[nH]cc(/C=C/C(=O)c3ccccc3)c2c1", "Potency": "inconclusive: 20.6 µM [activator, single point]"},
      {"molecule": "O=C(O)c1ccccc1-n1c2ccccc2c2ccccc21", "Potency": "inconclusive: 2.59 µM [activator, partial curve, poor fit]"},
      {"molecule": "C#C[C@]1(O)CC[C@H]2[C@H]3[C@H](CC[C@@]21C)C1=C(CC(=O)CC1)C[C@@H]3C", "Potency": "inactive"},
      {"molecule": "O=C(OCC(=O)N1CCCCC1)c1cc2ccccc2cc1O", "Potency": "inactive"},
      {"molecule": "CN(C)S(=O)(=O)c1cccc(N=C2SCCN2Cc2ccccc2)c1", "Potency": "inconclusive: 0.58 µM [activator, full curve, poor fit]"},
      {"molecule": "N#Cc1c(-c2ccccc2Cl)cc(-c2ccccc2)nc1Br", "Potency": "inconclusive: 23.1 µM [activator, partial curve, poor fit]"},
      {"molecule": "COC(=O)c1ccccc1NC(=O)c1cc2nc(C3CC3)cc(C(F)(F)F)n2n1", "Potency": "inconclusive: 12.6 µM [activator, partial curve, poor fit]"},
      {"molecule": "O=C(O)c1cccc(NC2=C(Cl)C(=O)c3ccccc3C2=O)c1", "Potency": "inconclusive: 29.1 µM [activator, single point]"},
      {"molecule": "O=C(NC1CCCCC1)c1ccc(CS(=O)Cc2ccccc2Cl)o1", "note": "(stereo not drawn)", "Potency": "inconclusive: 20.6 µM [activator, single point]"},
      {"molecule": "O=C(Nc1nccs1)C(NS(=O)(=O)c1ccc(Br)s1)c1ccccc1", "note": "(stereo not drawn)", "Potency": "inactive"},
      {"molecule": "C=CCn1c(O)c(N=Nc2ccccc2C)c2ccccc21", "Potency": "inconclusive: 20.6 µM [activator, single point]"},
      {"molecule": "O=S(=O)(Nc1ccc(Cc2ccncc2)cc1)c1ccc(Cl)c(Cl)c1", "Potency": "inconclusive: 23.1 µM [activator, single point]"},
      {"molecule": "Cc1cc2c(cc1C)NC1(C[C@H]3CCC(=O)N4CC[C@@H](C1)[C@@H]34)C(=NC(C)(C)CC(C)(C)C)N2", "note": "(stereo partly drawn)", "Potency": "inactive"},
      {"molecule": "CCOc1ccccc1N(C)C(=O)Cn1ncc2c([nH]c3ccc(C)cc32)c1=O", "Potency": "inconclusive: 20.6 µM [activator, partial curve, poor fit]"},
      {"molecule": "Nc1ccc(N2CCCCC2)cc1N1CCCCC1", "Potency": "inconclusive: 3.26 µM [activator, full curve, poor fit]"},
      {"molecule": "CCCCC#Cc1cncc(C(=O)NN)c1", "Potency": "inconclusive: 29.1 µM [activator, single point]"},
      {"molecule": "O=S(=O)(c1ccc(F)cc1)N1CCN(c2ccc(F)cc2)CC1", "Potency": "inconclusive: 18.4 µM [activator, single point]"},
      {"molecule": "Cc1nc(C(=O)NNC(=O)c2ccc(Cl)cc2)c(C(F)(F)F)o1", "Potency": "inconclusive: 1.03 µM [activator, full curve, poor fit]"},
      {"molecule": "CCOC(=O)c1nnn(-c2ccc(OC)cc2)c1N", "Potency": "inconclusive: 6.51 µM [activator, single point]"},
      {"molecule": "O=C(N/N=C1/CCSC1)c1cc(Br)ccc1O", "Potency": "inconclusive: 0.92 µM [activator, full curve, poor fit]"},
      {"molecule": "Cc1cc(=O)oc2cc(NC(=O)c3cccc(S(=O)(=O)N(C)C)c3)ccc12", "Potency": "inactive"}
    ]}
  ]
}
